Measured data: PubChem BioAssay AID1508597 (Cure First, 2020)
This is a random part of the about 2,100 reagents, under one of the conditions tested. 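Calls flag viability under 80% in either arm, not effects specific to rucaparib; the reference for percent is not stated.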 Unmarked entries are inactive. The record does not give: the 100% reference.

Assay: 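Genes whose silencing sensitises or protects ovarian cancer cells against rucaparib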 (primary screen)
System: human ovarian carcinoma lines grown from tumours: OCI-P5x (papillary serous) and OCI-C5x (clear cell)
Knock-down reagent: siRNA pool against human genes, 1.25 pmol siRNA per well
Duration: 72 h or 96 h, depending on the cell culture
Conditions: rucaparib 20 µM (about IC30) or vehicle, present until read-out
Rucaparib or vehicle: Vehicle
Cell line: OCI-C5x (clear cell)
Measurement: 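Luminescent ATP-based viability assay read 72 or 96 h after transfection, depending on culture, given as normalised percent viability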
Scale: viability, normalised: higher = more viable cells remaining
Call rule: 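a well counts as a hit if its normalised viability is under 80 percent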
Meaning of the calls: active = viability under 80%; inactive = viability 80% or more

target,technical replicate,"viability, normalised (%)"
NUDT1 (nudix hydrolase 1),1,46.6 (active)
NUDT1 (nudix hydrolase 1),2,40.1 (active)
NUDT1 (nudix hydrolase 1),3,44.2 (active)
CTCFL (CCCTC-binding factor like),1,39.5 (active)
CTCFL (CCCTC-binding factor like),2,53.2 (active)
CTCFL (CCCTC-binding factor like),3,44.1 (active)
ATRIP (ATR interacting protein),1,39.6 (active)
ATRIP (ATR interacting protein),2,36.8 (active)
ATRIP (ATR interacting protein),3,35.2 (active)
NIN (ninein),1,32.4 (active)
NIN (ninein),2,47.6 (active)
NIN (ninein),3,51.3 (active)
CDC42BPG (CDC42 binding protein kinase gamma),1,55.9 (active)
CDC42BPG (CDC42 binding protein kinase gamma),2,62 (active)
CDC42BPG (CDC42 binding protein kinase gamma),3,44.9 (active)
GRB10 (growth factor receptor bound protein 10),1,58.6 (active)
GRB10 (growth factor receptor bound protein 10),2,57.4 (active)
GRB10 (growth factor receptor bound protein 10),3,54.4 (active)
KMT2D (lysine methyltransferase 2D),1,37.2 (active)
KMT2D (lysine methyltransferase 2D),2,37 (active)
KMT2D (lysine methyltransferase 2D),3,54.1 (active)
GUCY2C (guanylate cyclase 2C),1,52.1 (active)
GUCY2C (guanylate cyclase 2C),2,46.2 (active)
GUCY2C (guanylate cyclase 2C),3,75.8 (active)

Part of the list above in another layout.
{"target":"CDC42BPG (CDC42 binding protein kinase gamma)","technical replicate":"3","viability, normalised (%)":"44.9 (active)"}
{"target":"GRB10 (growth factor receptor bound protein 10)","technical replicate":"1","viability, normalised (%)":"58.6 (active)"}
{"target":"GRB10 (growth factor receptor bound protein 10)","technical replicate":"2","viability, normalised (%)":"57.4 (active)"}
